In the supplement of paper PMC9015667:
Where a name gives a salt, the structure may show the parent alone. The list shows a part of the results. Repeats are few or missing, and single values can be far off.

How the values were obtained:
Assay in all cases: reduction in cell viability relative to untreated/vehicle; higher = more growth inhibition
Settings in all cases: 200 nM; 72 h
M229P = tested on: M229P (parental melanoma line)
M229R = tested on: M229R (matched melanoma line resistant to BRAF inhibitors)
M238P = tested on: M238P (parental melanoma line)
M238R = tested on: M238R (matched melanoma line resistant to BRAF inhibitors)
M249P = tested on: M249P (parental melanoma line)
M249R = tested on: M249R (matched melanoma line resistant to BRAF inhibitors)
UACC62P = tested on: UACC62P (parental melanoma line)
UACC62R = tested on: UACC62R (matched melanoma line resistant to BRAF inhibitors)

| SMILES | reduction in cell viability (M229P) | reduction in cell viability (M229R) | reduction in cell viability (M238P) | reduction in cell viability (M238R) | reduction in cell viability (M249P) | reduction in cell viability (M249R) | reduction in cell viability (UACC62P) | reduction in cell viability (UACC62R) |
| --- | --- | --- | --- | --- | --- | --- | --- | --- |
| O=C(O)C(=O)O.[NH-][C@@H]1CCCC[C@H]1[NH-].[Pt+2] [Oxaliplatin] | < 0% | < 0% | < 0% | < 0% | < 0% | < 0% | 9.06% | < 0% |
| Cc1c(OCC(F)(F)F)ccnc1C[S+]([O-])c1nc2ccccc2[nH]1 (configuration not stated) [Lansoprazole] | < 0% | < 0% | < 0% | < 0% | < 0% | < 0% | < 0% | < 0% |
| COc1cc2nc(N(C)CCCNC(=O)C3CCCO3)nc(N)c2cc1OC (configuration not stated) [Alfuzosin hydrochloride] | < 0% | < 0% | < 0% | < 0% | < 0% | < 0% | < 0% | < 0% |
| CN1CC2c3ccccc3Oc3ccc(Cl)cc3C2C1 (configuration not stated) [Asenapine] | < 0% | < 0% | < 0% | < 0% | < 0% | 8.37% | < 0% | < 0% |
| C[C@]12CC[C@@H]3c4ccc(O)cc4CC[C@H]3[C@@H]1C[C@@H](O)[C@@H]2O [Estriol] | < 0% | < 0% | < 0% | < 0% | < 0% | < 0% | < 0% | < 0% |
| COc1ccc2cc1Oc1ccc(cc1)C[C@H]1c3cc(c(OC)cc3CCN1C)Oc1c(OC)c(OC)cc3c1[C@H](C2)N(C)CC3 [Tetrandrine] | < 0% | < 0% | < 0% | < 0% | < 0% | < 0% | 8.83% | < 0% |
| O=C(Nc1cccc(Cl)c1)Nc1ncc(CCNc2ncnc3ccsc23)s1 | < 0% | < 0% | 24.1% | 14.6% | < 0% | < 0% | 15.9% | 41.9% |
| O=C(Nc1ccc(OC(F)(F)F)cc1)c1sccc1NCc1ccnc2ccccc12 | < 0% | < 0% | < 0% | < 0% | < 0% | < 0% | < 0% | < 0% |
| COC[C@H](NC(=O)c1cnc(C)s1)C(=O)N[C@@H](COC)C(=O)N[C@@H](Cc1ccccc1)C(=O)[C@@]1(C)CO1 [Oprozomib] | 89.3% | 87% | 87.7% | 86.2% | 84.3% | 92.3% | 81.2% | 80.5% |
| Cc1cc(-c2nnc3n2CCCCC3)c(C)n1-c1ccccc1 | < 0% | < 0% | < 0% | < 0% | < 0% | < 0% | < 0% | < 0% |
| CC(C)(Sc1ccc(CCN(CCCCC2CCCCC2)C(=O)NC2CCCCC2)cc1)C(=O)O | < 0% | < 0% | < 0% | < 0% | < 0% | < 0% | < 0% | < 0% |
| Nc1nc(F)nc2c1ncn2[C@@H]1O[C@H](COP(=O)(O)O)[C@@H](O)[C@@H]1O [Fludarabine phosphate] | < 0% | < 0% | < 0% | < 0% | < 0% | 0.18% | < 0% | < 0% |
| Nc1nc(Cl)nc2c1ncn2[C@H]1C[C@H](O)[C@@H](CO)O1 [Cladribine] | 5.94% | 30.2% | 91.2% | 62.6% | 23.1% | 45.4% | 60.6% | 80.1% |
| CCC(=O)NCC[C@@H]1CCc2ccc3c(c21)CCO3 [Ramelteon] | < 0% | < 0% | < 0% | < 0% | < 0% | < 0% | < 0% | < 0% |
| Cc1ccc(/C=N/NC(=O)c2ccccc2Oc2ccccc2)o1 | < 0% | < 0% | < 0% | < 0% | < 0% | < 0% | < 0% | < 0% |
| N#Cc1ccc(NC(=O)Nc2ccccc2Br)c2n[nH]nc12 | < 0% | < 0% | < 0% | < 0% | < 0% | < 0% | 2.58% | < 0% |
| CCC(C)n1ncn(-c2ccc(N3CCN(c4ccc(OCC5COC(Cn6cncn6)(c6ccc(Cl)cc6Cl)O5)cc4)CC3)cc2)c1=O (configuration not stated) [Itraconazole] | < 0% | < 0% | < 0% | < 0% | < 0% | < 0% | < 0% | < 0% |
| O=P(O)(O)C(O)(Cn1ccnc1)P(=O)(O)O [Zoledronic acid monohydrate] | < 0% | < 0% | < 0% | < 0% | < 0% | < 0% | < 0% | < 0% |
| CC1(C)CC[C@]2(C(=O)O)CC[C@]3(C)C(=CC[C@@H]4[C@@]5(C)CC[C@H](O)C(C)(C)[C@@H]5CC[C@]43C)[C@@H]2C1 [Oleanolic acid] | < 0% | < 0% | < 0% | < 0% | < 0% | < 0% | < 0% | < 0% |
| O=C(O)c1cccnc1 [Niacin] | < 0% | < 0% | < 0% | < 0% | 0.94% | 7.17% | 0.85% | < 0% |
| C[C@H](NC(=O)c1sccc1OCc1ccc(Cl)cc1)c1ccccc1 | < 0% | < 0% | < 0% | < 0% | < 0% | 13.4% | 3.06% | < 0% |
| COc1cc(Nc2ncc(F)c(Nc3ccc4c(n3)NC(=O)C(C)(C)O4)n2)cc(OC)c1OC | < 0% | < 0% | < 0% | < 0% | < 0% | 0.07% | 1.34% | 37% |

| SMILES | reduction in cell viability (M229P) | reduction in cell viability (M229R) | reduction in cell viability (M238P) | reduction in cell viability (M238R) | reduction in cell viability (M249P) | reduction in cell viability (M249R) | reduction in cell viability (UACC62P) | reduction in cell viability (UACC62R) |
| --- | --- | --- | --- | --- | --- | --- | --- | --- |
| C[C@@H](NC(=O)c1ncnc(N)c1Cl)c1ncc(C(=O)Nc2cc(C(F)(F)F)c(Cl)cn2)s1 | < 0% | < 0% | < 0% | < 0% | < 0% | < 0% | 8.02% | < 0% |
| C[C@]12C=CC(=O)C=C1CC[C@@H]1[C@@H]2[C@@H](O)C[C@@]2(C)[C@H]1CC[C@]2(O)C(=O)CO [Prednisolone] | < 0% | < 0% | < 0% | < 0% | < 0% | < 0% | < 0% | < 0% |
| COc1ccc2[nH]c([S+]([O-])Cc3ncc(C)c(OC)c3C)nc2c1 (configuration not stated) [Omeprazole] | < 0% | < 0% | < 0% | < 0% | < 0% | < 0% | < 0% | < 0% |
| CN(C)c1nc(Cc2ccc(NC(=O)c3ccc4ccccc4c3)cc2)nc(Cl)c1CC(=O)O | < 0% | < 0% | < 0% | < 0% | < 0% | < 0% | < 0% | < 0% |
| CCOc1ccc(Cc2cc([C@@H]3O[C@H](CO)[C@@H](O)[C@H](O)[C@H]3O)ccc2Cl)cc1 [Dapagliflozin] | < 0% | 2.36% | < 0% | < 0% | < 0% | < 0% | < 0% | < 0% |
| O=C1c2c(O)cccc2C([C@@H]2O[C@H](CO)[C@@H](O)[C@H](O)[C@H]2O)c2cc(CO)cc(O)c21 (some centres not stated) [Aloin] | < 0% | < 0% | < 0% | < 0% | < 0% | < 0% | < 0% | < 0% |
| COc1cc(OC)c(C(=O)CCCN2CCCC2)c(OC)c1 [Buflomedil hydrochloride] | < 0% | < 0% | < 0% | < 0% | < 0% | < 0% | < 0% | < 0% |
| CCn1c(-c2nonc2N)nc2c(C#CC(C)(C)O)ncc(OC[C@H]3CCCNC3)c21 | 4.34% | 14% | 13.4% | < 0% | < 0% | 23.5% | 19.7% | < 0% |
| C[C@@H](O)[C@H]1C(=O)N2C(C(=O)O)=C(SCCNC=N)C[C@H]12 [Imipenem] | < 0% | < 0% | < 0% | < 0% | < 0% | < 0% | < 0% | < 0% |
| CCc1c2c(nc3ccc(O)cc13)-c1cc3c(c(=O)n1C2)COC(=O)[C@]3(O)CC | 47.5% | 69.7% | 72% | 49.3% | 48% | 67.3% | 61.4% | 67.8% |
| COc1ccc(OC)c(-c2nnc3ccc(-c4ccc(OC)c(O[C@@H]5CCOC5)c4)nn23)c1 | 5.77% | < 0% | < 0% | < 0% | < 0% | 3.79% | 16.2% | 18.6% |
| COc1cccc([C@@H](C)NCCCc2ccccc2Cl)c1 | < 0% | < 0% | < 0% | < 0% | < 0% | < 0% | < 0% | 5.51% |
| C/C(=N\NC(=S)N1CCC1)c1ccccn1 | 50.6% | 42% | 48.1% | 61.2% | 32.8% | 32.4% | 39.7% | 66.1% |
| C[C@]12CC[C@@H]3c4ccc(O)cc4CC[C@H]3[C@@H]1CCC2=O [Estrone] | 0.11% | < 0% | < 0% | < 0% | < 0% | < 0% | 7.46% | < 0% |
| NC(=O)c1ccc(N(C(N)=O)c2c(F)cccc2F)nc1-c1ccc(F)cc1F | < 0% | < 0% | < 0% | < 0% | < 0% | < 0% | < 0% | < 0% |
| Cn1cc(-c2cnn3c(N)c(Br)c([C@@H]4CCCNC4)nc23)cn1 | 2.26% | 44.3% | 34.6% | 2.07% | 11.6% | 32% | 7.35% | 28.5% |
| CO/N=C(\C(=O)N[C@@H]1C(=O)N2C(C(=O)O)=C(Cn3ccc(=N)n3CCO)CS[C@H]12)c1csc(N)n1 [Cefoselis sulfate] | < 0% | < 0% | < 0% | < 0% | < 0% | < 0% | 12.3% | < 0% |
| CC(=O)c1c(C)c2cnc(Nc3ccc(N4CCNCC4)cn3)nc2n(C2CCCC2)c1=O | < 0% | < 0% | < 0% | < 0% | < 0% | < 0% | < 0% | < 0% |
| c1ccc(-c2nn3c(c2-c2ccnc4cc(OCCN5CCOCC5)ccc24)CCC3)nc1 | < 0% | < 0% | < 0% | < 0% | < 0% | < 0% | < 0% | < 0% |
| CC1COc2c(N3CCN(C)CC3)c(F)cc3c(=O)c(C(=O)O)cn1c23 (configuration not stated) [Ofloxacin] | < 0% | < 0% | < 0% | < 0% | < 0% | < 0% | < 0% | < 0% |
| COc1ccc2cccc(CCNC(C)=O)c2c1 [Agomelatine] | < 0% | < 0% | < 0% | < 0% | < 0% | < 0% | < 0% | < 0% |
| COc1ccc(-c2cc(=O)c3c(O)cc(O[C@@H]4O[C@H](CO[C@@H]5O[C@@H](C)[C@H](O)[C@@H](O)[C@H]5O)[C@@H](O)[C@H](O)[C@H]4O)cc3o2)cc1O [Diosmin] | < 0% | < 0% | < 0% | < 0% | < 0% | < 0% | < 0% | < 0% |

2 entries from above, with bars between the fields.
SMILES | reduction in cell viability (M229P) | reduction in cell viability (M229R) | reduction in cell viability (M238P) | reduction in cell viability (M238R) | reduction in cell viability (M249P) | reduction in cell viability (M249R) | reduction in cell viability (UACC62P) | reduction in cell viability (UACC62R)
COc1ccc(OC)c(-c2nnc3ccc(-c4ccc(OC)c(O[C@@H]5CCOC5)c4)nn23)c1 | 5.77% | < 0% | < 0% | < 0% | < 0% | 3.79% | 16.2% | 18.6%
C[C@]12CC[C@@H]3c4ccc(O)cc4CC[C@H]3[C@@H]1CCC2=O [Estrone] | 0.11% | < 0% | < 0% | < 0% | < 0% | < 0% | 7.46% | < 0%
